From PMC13254535, “The RecBCD complex interacts directly with the DNA sliding clamp in Escherichia coli” (Nucleic Acids Research, 2026)
These are yes or no findings as the source states them, for the method shown. In cells and extracts the contact can be indirect. Some entries that bind do so weakly or less than the wild type. Tags and fused reporters may be left off the sequences shown.

By UniProt entry, the sequences of proteins in these tests, tags left out.
UniProt P0A988: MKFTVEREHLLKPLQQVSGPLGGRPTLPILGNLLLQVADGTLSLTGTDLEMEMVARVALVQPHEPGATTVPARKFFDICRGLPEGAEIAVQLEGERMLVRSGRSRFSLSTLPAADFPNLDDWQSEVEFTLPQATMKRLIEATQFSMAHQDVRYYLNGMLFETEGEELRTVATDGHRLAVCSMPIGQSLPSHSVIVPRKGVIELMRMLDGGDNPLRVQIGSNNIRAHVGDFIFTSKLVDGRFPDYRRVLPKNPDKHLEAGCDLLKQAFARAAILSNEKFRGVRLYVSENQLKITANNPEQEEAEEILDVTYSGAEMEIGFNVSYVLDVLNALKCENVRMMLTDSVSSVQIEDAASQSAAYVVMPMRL

Target: T1, N-terminally his-tagged RecB expressed from pBAD30-recB (Escherichia coli) (UniProt P08394)
T1 sequence: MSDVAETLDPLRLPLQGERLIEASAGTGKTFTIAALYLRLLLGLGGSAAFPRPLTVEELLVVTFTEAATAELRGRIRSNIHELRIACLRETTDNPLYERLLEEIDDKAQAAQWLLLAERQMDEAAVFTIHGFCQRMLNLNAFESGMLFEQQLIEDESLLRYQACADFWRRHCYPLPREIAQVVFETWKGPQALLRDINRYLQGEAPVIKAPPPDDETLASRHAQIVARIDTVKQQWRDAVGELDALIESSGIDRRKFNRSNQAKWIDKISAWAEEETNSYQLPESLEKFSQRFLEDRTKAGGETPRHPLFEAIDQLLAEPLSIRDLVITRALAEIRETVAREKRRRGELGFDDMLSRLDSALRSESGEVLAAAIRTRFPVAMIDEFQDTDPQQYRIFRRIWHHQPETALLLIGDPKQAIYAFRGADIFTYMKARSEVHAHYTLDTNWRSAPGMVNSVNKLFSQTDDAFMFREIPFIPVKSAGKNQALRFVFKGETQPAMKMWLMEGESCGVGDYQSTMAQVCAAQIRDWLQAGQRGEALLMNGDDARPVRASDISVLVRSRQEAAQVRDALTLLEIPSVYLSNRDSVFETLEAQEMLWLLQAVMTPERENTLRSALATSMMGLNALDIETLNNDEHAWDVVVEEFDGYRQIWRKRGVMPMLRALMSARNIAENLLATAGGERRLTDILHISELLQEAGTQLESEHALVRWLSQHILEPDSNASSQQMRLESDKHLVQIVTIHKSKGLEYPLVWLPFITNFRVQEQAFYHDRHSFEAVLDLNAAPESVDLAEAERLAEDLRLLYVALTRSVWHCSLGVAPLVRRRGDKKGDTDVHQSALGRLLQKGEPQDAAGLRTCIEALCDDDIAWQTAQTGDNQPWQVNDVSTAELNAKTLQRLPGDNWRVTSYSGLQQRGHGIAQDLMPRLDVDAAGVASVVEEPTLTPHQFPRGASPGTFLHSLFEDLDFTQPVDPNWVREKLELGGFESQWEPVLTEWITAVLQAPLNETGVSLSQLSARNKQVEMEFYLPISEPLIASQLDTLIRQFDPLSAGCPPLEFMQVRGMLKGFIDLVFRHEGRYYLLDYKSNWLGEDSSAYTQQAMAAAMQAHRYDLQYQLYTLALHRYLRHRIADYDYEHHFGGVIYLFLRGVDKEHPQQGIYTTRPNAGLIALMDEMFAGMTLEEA
Assay: co-IP; His-tagged RecB as bait on Dynabeads His-Tag Isolation and Pulldown beads; lysate of formaldehyde-crosslinked MG1655; 30 min at 4°C; washes with 300 mM NaCl; elution with 300 mM imidazole; Western blot with anti-β-clamp

β-clamp (DnaN), endogenous in E. coli MG1655 (from UniProt P0A988 1-366)
binding: binds
